Results from PubChem BioAssay AID493014 (National Center for Advancing Translational Sciences (NCATS), 2011).
In all, about 340,000 compounds went through this assay and about 170 (0.05%) were called active. The inconclusive results got no clear call from the source; some entries with a clear call stand among them for comparison. Calls come from the whole dose curve; as a rule, active = well fitted inhibition curve with a large enough effect in the signal ratio, with a control signal flat (not every such curve was filed as active); inconclusive = small, poorly fitted or top-dose-only effect, or effect the other way, or a change in a side signal; inactive = flat fitted curve, though single readings scatter; the % refers to the signal ratio. A potency beside an inconclusive call is a rough fit, not a confirmed value.

Assay: qHTS Assay to Find Inhibitors of Chronic Active B-Cell Receptor Signaling;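 for activity change, negative = inhibition: plate controls were basal doxycycline-induced cells for no effect and cells given 10 µM MG132 for full effect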
Details: ABC-DLBCL IkBa-CBG/CBR reporter, luminescence ratio (green luciferase fused to IkBa over red control in TMD8 lymphoma cells), 4 h; activity change, negative = inhibition: at 46.1 µM (top of the series)
Summary of the method: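 TMD8 human ABC-DLBCL cells with doxycycline-inducible IκBα–green luciferase fusion and unfused red luciferase, in 0.5% FBS medium; compounds up to 46 uM, 4 h at 37C. Green/red luminescence ratio, filter-overlap corrected, fitted to concentration-response curves.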
Potency is the fitted concentration of half-maximal effect.

Compound	Potency	activity change, negative = inhibition
CCCOc1ccc(/C=N/NC(=O)c2ccc3c(c2)OCO3)c(OCCC)c1	inconclusive: 11.2 µM [falling, partial curve, poor fit]	–
CCCC(=O)Nc1cccc(NC(=O)c2cccc([N+](=O)[O-])c2C)c1	–	inconclusive: 0.115%
COC(=O)CSc1nccc(-c2ccc(F)cc2)c1C#N	–	inconclusive: 5.46%
CC(=O)N1c2ccccc2C(=O)C1N(C)c1ccc(C)cc1 (configuration not stated)	–	inconclusive: -9.25%
Cc1ccccc1C(=O)NNC(=O)c1ccc(Br)cc1	inconclusive: 12.6 µM [falling, partial curve]	–
CC(=O)Nc1ccc(NC(=O)C(C)Oc2ccc(C)nc2[N+](=O)[O-])cc1 (configuration not stated)	–	inconclusive: -9.7%
Cc1[nH]n(-c2ccccc2)c(=O)c1C=NCc1ccncc1	inconclusive: 35.5 µM [rising, partial curve, poor fit]	–
Cc1cc(C(=O)NNC(=O)/C=C/c2ccccc2Cl)c(C)o1	inconclusive: 3.16 µM [falling, full curve]	–
COC(=O)c1ccc(Nc2cc(C)nc3nc(C)nn23)cc1	–	inconclusive: -4.41%
Cc1ccc(NC(=O)CCS(=O)(=O)c2ccc(Br)cc2)c(C)c1	–	inactive: 8.32%
O=C(NCc1ccc2c(c1)OCO2)Nc1ccc2ccccc2c1	inconclusive: 22.4 µM [falling, partial curve]	–
O=C(NC1CCCCC1)c1ccc(CNc2ccccc2)o1	–	inconclusive: -10.9%
O=C(NCCCn1ccnc1)c1ccc(-c2cccc(Cl)c2Cl)o1	–	inactive: -1.89%
N#CCSc1ccccc1NC(=O)COC(=O)Cc1c[nH]c2ccccc12	inconclusive: 18.4 µM [falling, single point]	–
CCOc1ccc(NC(=O)CSc2nc(C)cc(C)n2)cc1	–	inconclusive: 4.63%
Cc1cc(/C=C2\Sc3ccccc3N2C)cc(C)[n+]1CC1CCCO1 (configuration not stated)	–	inconclusive: -1.87%
CCOC(=O)C1CCN(Cc2ccc(F)cc2)CC1	–	inactive: -9.92%
CCOc1ccc(-n2c(SCC(=O)Nc3ccccc3C)n[nH]c2=O)cc1	inconclusive: 25.1 µM [falling, partial curve, poor fit]	–
CN(CC(=O)Nc1ccc(F)cc1)C(=O)COC(=O)C1=COCCO1	–	inactive: -18.8%
CCCCCC(=O)N=Nc1c(O)[nH]c2ccc([N+](=O)[O-])cc12	–	inconclusive: 14.2%
O=C(CC1C(=O)NCCN1Cc1cccc(F)c1F)NCCCC1CCCC1 (configuration not stated)	–	inactive: -5.7%
CC(=NCCCn1ccnc1)c1c(-c2ccccc2)[nH]n(-c2nc3ccccc3s2)c1=O	–	inactive: 15.4%
Cc1c(/C=N/N2C(=O)C3C4C=CC(C4)C3C2=O)c2ccccc2n1C (configuration not stated)	–	inconclusive: -2.11%
CC(C)C(C(=O)OCC(=O)c1ccc2c(c1)NC(=O)CO2)N1C(=O)c2ccccc2C1=O (configuration not stated)	inconclusive: 2.06 µM [falling, partial curve, poor fit]	–
CCCC(=O)Nc1sc(C(=O)OC)c(C)c1C(N)=O	–	inactive: 1.59%
CC(C)OCCCn1c(SCC(=O)Nc2ccccc2C(F)(F)F)nc2nccnc2c1=O	–	inactive: -0.831%

Laid out differently: results already given
Compound | Potency | activity change, negative = inhibition
CC(C)C(C(=O)OCC(=O)c1ccc2c(c1)NC(=O)CO2)N1C(=O)c2ccccc2C1=O (configuration not stated) | inconclusive: 2.06 µM [falling, partial curve, poor fit] | –
CCCC(=O)Nc1sc(C(=O)OC)c(C)c1C(N)=O | – | inactive: 1.59%

(listing goes on)

Compound	Potency	activity change, negative = inhibition
CCCCn1c(N)c(N(CC(C)C)C(=O)c2cc(-c3ccc(F)cc3)nc3ccccc23)c(=O)[nH]c1=O	–	inconclusive: 9.51%
Cc1cccc(C(=O)Nc2cccc(C(=O)N3CCOCC3)c2)c1	–	inactive: 28.7%
CC1OC(Oc2c(-c3cc(O)c(O)c(O)c3)oc3cc(O)cc(O)c3c2=O)C(O)C(O)C1O (configuration not stated)	–	inconclusive: 10.2%
CCOc1ccc(-c2nc(CSc3nnc(N)s3)cs2)cc1	–	inactive: -2.93%
C=CCOc1c(Cl)cc(C(=S)N2CCCC2)cc1OCC	–	inconclusive: -26.5%
CC(=O)n1cc([C@@H]2C=C(C(=O)NCc3ccccc3)O[C@H](OCCCCO)C2)c2ccccc21	–	inactive: -13.2%
Oc1c(C=Nc2ccc(Cl)cn2)sc2ccccc12	–	inconclusive: 1.36%
Cc1ccc(S(=O)(=O)N(CC(=O)N2CCN(c3ccccc3F)CC2)C2CCCCC2)cc1	–	inconclusive: 10.9%
COc1cc(/C=C/c2ccc3cccc(O)c3n2)cc(Br)c1OC	inconclusive: 11.2 µM [falling, partial curve]	–
CN(NC(=O)c1cccc(Cl)c1)c1nc(-c2ccccc2)nnc1C(F)(F)F	–	inactive: -5.82%
Nc1c(S(=O)(=O)c2ccccc2)c2nc3ccccc3nc2n1C1CC1	–	inactive: 1.14%
CC1Nc2ncnc(N3CCc4ccccc4C3)c2N(Cc2ccc(Cl)cc2)C1=O (configuration not stated)	–	inactive: -12.1%
CCOC(=O)c1ccc(NC(=O)N2CCN(CCc3ccccc3)CC2)cc1	–	inconclusive: 5.45%
Cc1ccc(-c2nnc(CSc3nnc(COc4ccccc4)n3-c3ccccc3)o2)cc1	–	inconclusive: -12.4%
COc1ccc(CCn2c(N)c(C#N)c3nc4ccccc4nc32)cc1OC	–	inconclusive: 0.598%
Cc1ccc(C(=O)CSc2cnc3ccccc3n2)cc1C	inconclusive: 11.6 µM [falling, partial curve]	–
O=C(Nc1ccc(N2CCCC2)c(Cl)c1)c1ccc([N+](=O)[O-])o1	–	inconclusive: -0.0436%
COc1ccc(C(=O)Nc2ccc(C)c(S(=O)(=O)N3CCCCCC3)c2)cc1	–	inconclusive: -10.4%
O=C(C[C@H]1C/C=C\CC[C@@H](Cc2ccc(F)cc2)C(=O)OCCNC1=O)NCCO	–	inconclusive: 1.4%
O=C(O)c1ccc2[nH]c3c(c2c1)CCCC3	inconclusive: 1.26 µM [rising, full curve, poor fit]	–
CN1CCN(CCc2nc3cc(NC(=O)COc4ccccc4)ccc3n2C)CC1	–	inactive: 0.505%
NS(=O)(=O)c1ccc(NC(=O)CN2CCN(Cc3ccccc3)CC2)cc1	–	inconclusive: 16%
CC(=O)C1=C(C)NC(SCc2ccc(C#N)cc2)=C(C#N)C1c1ccco1 (configuration not stated)	–	inconclusive: -0.015%
Cc1cc(N2CCN(C)CC2)nc2ccc(NC(=O)c3ccc4c(c3)OCO4)cc12	–	inconclusive: -0.826%
COc1ccc(C2CC(c3cccs3)=NN2c2nc(C)c(C(C)=O)s2)cc1OC (configuration not stated)	inconclusive: 0.631 µM [falling, full curve, poor fit]	–
Cn1c(C(=O)N2CCCC(C(=O)NCc3cccs3)C2)cc2sccc21 (configuration not stated)	–	inconclusive: 4.76%
